Measured data: PubChem BioAssay AID1508597 (Cure First, 2020)

Test: 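Genes whose silencing sensitises or protects ovarian cancer cells against rucaparib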 (primary screen)
Cells: human ovarian carcinoma lines grown from tumours: OCI-P5x (papillary serous) and OCI-C5x (clear cell)
Reagents: siRNA pool against human genes, 1.25 pmol siRNA per well
Time to read-out: 72 h or 96 h, depending on the cell culture
Treatment: rucaparib 20 µM (about IC30) or vehicle, present until read-out
Detection: 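ATP luminescence measured at 72 or 96 h according to the culture, then normalised and expressed as percent viability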
Direction: viability, normalised: higher = more viable cells remaining
Active means: 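Active when normalised viability falls below 80 percent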
Meaning of the calls: active = viability under 80%; inactive = viability 80% or more
Shown is an unselected part of about 2,100 deposited reagents. 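Calls flag viability under 80% in either arm, not effects specific to rucaparib; the reference for percent is not stated.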 No sequences are given here. Not given: the 100% reference.

With SCML2 (Scm polycomb group protein like 2), rucaparib or vehicle Rucaparib, cell line OCI-C5x (clear cell), technical replicate 1, the entry reads viability, normalised (%) = 49.2; active.
With SCML2 (Scm polycomb group protein like 2), rucaparib or vehicle Rucaparib, cell line OCI-C5x (clear cell), technical replicate 2, the values are viability, normalised (%) = 46; active.
For SCML2 (Scm polycomb group protein like 2), rucaparib or vehicle Rucaparib, cell line OCI-C5x (clear cell), technical replicate 3 the deposit lists viability, normalised (%) = 46.4; active.
For SCML2 (Scm polycomb group protein like 2), rucaparib or vehicle Rucaparib, cell line OCI-P5x (serous), technical replicate 1 the deposit lists viability, normalised (%) = 58.6; active.
For SCML2 (Scm polycomb group protein like 2), rucaparib or vehicle Rucaparib, cell line OCI-P5x (serous), technical replicate 2 the deposit lists viability, normalised (%) = 48; active.
SCML2 (Scm polycomb group protein like 2), rucaparib or vehicle Rucaparib, cell line OCI-P5x (serous), technical replicate 3 gave viability, normalised (%) = 56.8; active.
SCML2 (Scm polycomb group protein like 2), rucaparib or vehicle Vehicle, cell line OCI-C5x (clear cell), technical replicate 1 scored viability, normalised (%) = 48.7; active.
SCML2 (Scm polycomb group protein like 2), rucaparib or vehicle Vehicle, cell line OCI-C5x (clear cell), technical replicate 2 gave viability, normalised (%) = 45.6; active.
SCML2 (Scm polycomb group protein like 2), rucaparib or vehicle Vehicle, cell line OCI-C5x (clear cell), technical replicate 3 scored viability, normalised (%) = 45.7; active.
For SCML2 (Scm polycomb group protein like 2), rucaparib or vehicle Vehicle, cell line OCI-P5x (serous), technical replicate 1, the values are viability, normalised (%) = 65.3; active.
For SCML2 (Scm polycomb group protein like 2), rucaparib or vehicle Vehicle, cell line OCI-P5x (serous), technical replicate 2, the entry reads viability, normalised (%) = 80.7; inactive.
With SCML2 (Scm polycomb group protein like 2), rucaparib or vehicle Vehicle, cell line OCI-P5x (serous), technical replicate 3, the values are viability, normalised (%) = 78.6; active.
With CASP7 (caspase 7), rucaparib or vehicle Rucaparib, cell line OCI-C5x (clear cell), technical replicate 1, the entry reads viability, normalised (%) = 59.5; active.
For CASP7 (caspase 7), rucaparib or vehicle Rucaparib, cell line OCI-C5x (clear cell), technical replicate 2, the values are viability, normalised (%) = 49.5; active.
CASP7 (caspase 7), rucaparib or vehicle Rucaparib, cell line OCI-C5x (clear cell), technical replicate 3 scored viability, normalised (%) = 51.9; active.
CASP7 (caspase 7), rucaparib or vehicle Rucaparib, cell line OCI-P5x (serous), technical replicate 1 gave viability, normalised (%) = 93; inactive.
CASP7 (caspase 7), rucaparib or vehicle Rucaparib, cell line OCI-P5x (serous), technical replicate 2 gave viability, normalised (%) = 98.1; inactive.
For CASP7 (caspase 7), rucaparib or vehicle Rucaparib, cell line OCI-P5x (serous), technical replicate 3, the entry reads viability, normalised (%) = 109; inactive.
CASP7 (caspase 7), rucaparib or vehicle Vehicle, cell line OCI-C5x (clear cell), technical replicate 1 gave viability, normalised (%) = 48.6; active.
CASP7 (caspase 7), rucaparib or vehicle Vehicle, cell line OCI-C5x (clear cell), technical replicate 2 scored viability, normalised (%) = 39.5; active.
CASP7 (caspase 7), rucaparib or vehicle Vehicle, cell line OCI-C5x (clear cell), technical replicate 3 gave viability, normalised (%) = 62.3; active.
CASP7 (caspase 7), rucaparib or vehicle Vehicle, cell line OCI-P5x (serous), technical replicate 1 scored viability, normalised (%) = 89.8; inactive.
CASP7 (caspase 7), rucaparib or vehicle Vehicle, cell line OCI-P5x (serous), technical replicate 2 scored viability, normalised (%) = 65.7; active.
With CASP7 (caspase 7), rucaparib or vehicle Vehicle, cell line OCI-P5x (serous), technical replicate 3, the values are viability, normalised (%) = 71.4; active.
With BMP7 (bone morphogenetic protein 7), rucaparib or vehicle Rucaparib, cell line OCI-C5x (clear cell), technical replicate 1, the values are viability, normalised (%) = 72; active.
With BMP7 (bone morphogenetic protein 7), rucaparib or vehicle Rucaparib, cell line OCI-C5x (clear cell), technical replicate 2 the deposit lists viability, normalised (%) = 67.1; active.
BMP7 (bone morphogenetic protein 7), rucaparib or vehicle Rucaparib, cell line OCI-C5x (clear cell), technical replicate 3 showed viability, normalised (%) = 49.7; active.
BMP7 (bone morphogenetic protein 7), rucaparib or vehicle Rucaparib, cell line OCI-P5x (serous), technical replicate 1 scored viability, normalised (%) = 81.6; inactive.
BMP7 (bone morphogenetic protein 7), rucaparib or vehicle Rucaparib, cell line OCI-P5x (serous), technical replicate 2 gave viability, normalised (%) = 115; inactive.
For BMP7 (bone morphogenetic protein 7), rucaparib or vehicle Rucaparib, cell line OCI-P5x (serous), technical replicate 3, the values are viability, normalised (%) = 77.2; active.
BMP7 (bone morphogenetic protein 7), rucaparib or vehicle Vehicle, cell line OCI-C5x (clear cell), technical replicate 1 showed viability, normalised (%) = 46.7; active.
For BMP7 (bone morphogenetic protein 7), rucaparib or vehicle Vehicle, cell line OCI-C5x (clear cell), technical replicate 2, the entry reads viability, normalised (%) = 35.2; active.
BMP7 (bone morphogenetic protein 7), rucaparib or vehicle Vehicle, cell line OCI-C5x (clear cell), technical replicate 3 scored viability, normalised (%) = 48.9; active.
With BMP7 (bone morphogenetic protein 7), rucaparib or vehicle Vehicle, cell line OCI-P5x (serous), technical replicate 1, the values are viability, normalised (%) = 74.1; active.
For BMP7 (bone morphogenetic protein 7), rucaparib or vehicle Vehicle, cell line OCI-P5x (serous), technical replicate 2, the values are viability, normalised (%) = 87.5; inactive.
BMP7 (bone morphogenetic protein 7), rucaparib or vehicle Vehicle, cell line OCI-P5x (serous), technical replicate 3 scored viability, normalised (%) = 80.9; inactive.
With BRSK2 (BR serine/threonine kinase 2), rucaparib or vehicle Rucaparib, cell line OCI-C5x (clear cell), technical replicate 1 the deposit lists viability, normalised (%) = 42.8; active.
BRSK2 (BR serine/threonine kinase 2), rucaparib or vehicle Rucaparib, cell line OCI-C5x (clear cell), technical replicate 2 scored viability, normalised (%) = 70.9; active.
BRSK2 (BR serine/threonine kinase 2), rucaparib or vehicle Rucaparib, cell line OCI-C5x (clear cell), technical replicate 3 scored viability, normalised (%) = 48.9; active.
With BRSK2 (BR serine/threonine kinase 2), rucaparib or vehicle Rucaparib, cell line OCI-P5x (serous), technical replicate 1 the deposit lists viability, normalised (%) = 67.1; active.
BRSK2 (BR serine/threonine kinase 2), rucaparib or vehicle Rucaparib, cell line OCI-P5x (serous), technical replicate 2 scored viability, normalised (%) = 79; active.
BRSK2 (BR serine/threonine kinase 2), rucaparib or vehicle Rucaparib, cell line OCI-P5x (serous), technical replicate 3 gave viability, normalised (%) = 55.4; active.
For BRSK2 (BR serine/threonine kinase 2), rucaparib or vehicle Vehicle, cell line OCI-C5x (clear cell), technical replicate 1 the deposit lists viability, normalised (%) = 66.4; active.
With BRSK2 (BR serine/threonine kinase 2), rucaparib or vehicle Vehicle, cell line OCI-C5x (clear cell), technical replicate 2, the values are viability, normalised (%) = 48; active.
BRSK2 (BR serine/threonine kinase 2), rucaparib or vehicle Vehicle, cell line OCI-C5x (clear cell), technical replicate 3 scored viability, normalised (%) = 67.5; active.
With BRSK2 (BR serine/threonine kinase 2), rucaparib or vehicle Vehicle, cell line OCI-P5x (serous), technical replicate 1, the entry reads viability, normalised (%) = 57; active.
With BRSK2 (BR serine/threonine kinase 2), rucaparib or vehicle Vehicle, cell line OCI-P5x (serous), technical replicate 2, the values are viability, normalised (%) = 38.9; active.
With BRSK2 (BR serine/threonine kinase 2), rucaparib or vehicle Vehicle, cell line OCI-P5x (serous), technical replicate 3 the deposit lists viability, normalised (%) = 54.6; active.
